# PubChem BioAssay AID504648 (National Center for Advancing Translational Sciences (NCATS), 2011)
# Screen size: about 390,000 compounds; about 610 (0.16%) were called active. Inconclusive means that the source gave no clear call. Such entries were picked first, then a sample of the others. Calls come from the whole dose curve; as a rule, active = well fitted inhibition curve with a large enough effect; inconclusive = small, poorly fitted or top-dose-only effect, or effect the other way, or another doubt; inactive = no such curve, though single readings can be large or run the other way. Where the call is inconclusive, the potency comes from a doubtful curve fit.
# Experiment: Nrf2 qHTS screen for inhibitors: counterscreen for cytotoxicity
# Conditions: A549 ARE-Fluc cells, CellTiter-Fluor viability, 18-24 h; activity change, negative = cytotoxicity: at 46 µM (top of the series)
# Procedure, shortened: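 Cytotoxicity counterscreen: CellTiter-Fluor fluorescence was measured in A549 ARE_Fluc cells after 18-24 h of compound exposure in a concentration series. The subsequent BugLite luminescent read reports ARE-luciferase activity.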
# % is set by controls: 0 for no effect and ±100 for the full control effect; potency is the fitted concentration of half-maximal effect.
SMILES,"activity change, negative = cytotoxicity",Potency
Cn1nnnc1SCCCNCc1cc(Br)ccc1OCc1ccccc1F,inactive: -16.2%,
Cc1ccc(S(=O)(=O)N2CCCC(N3CCOCC3)C2)cc1Cl (stereo not given),,"inconclusive: 16.4 µM [activator, single point]"
CC(C)c1ccc2c(c1)c(SC(C)(C)C)c(CC(C)(C)C(=O)O)n2Cc1ccc(Cl)cc1,,"inconclusive: 29.1 µM [falling, single point]"
O=c1[nH]n2c(=O)c3c([nH]c2c1N=Nc1cccc(C(F)(F)F)c1)CCCC3,,"inconclusive: 18.4 µM [falling, single point]"
Cc1cccc(C(=O)N2CCc3cc(-c4csc(NC(=O)CN5CCCC5)n4)ccc32)c1,,"inconclusive: 32.6 µM [falling, partial curve, poor fit]"
CCOc1ccc(Nc2oc(/C=C/c3ccc(OC)c(OC)c3)nc2C#N)cc1,inactive: -6.79%,
CCOc1ccccc1CN1CCN(Cc2nc3c(s2)CCCC3)CC1CCO (stereo not given),,"inconclusive: 18.4 µM [falling, single point]"
Cc1cccn2c(=O)c(C(=O)NC(C)c3ccccc3)c(O)nc12 (stereo not given),,"inconclusive: 20.6 µM [falling, partial curve, poor fit]"
C[C@@H]1CN([C@@H](C)CO)C(=O)c2cc(NC(=O)CCC(F)(F)F)ccc2O[C@H]1CN(C)Cc1ccc(Cl)c(Cl)c1,,"inconclusive: 20.6 µM [falling, single point]"
COc1ccc(Cn2c(C)nnc2-c2cnn(C)c2N)cc1,inactive: -0.656%,
CC(=O)c1ccc(NC(=O)c2cc3sccc3n2Cc2ccc(Cl)cc2)cc1,,"inconclusive: 32.6 µM [falling, partial curve, poor fit]"
Cc1onc(-c2ccccc2)c1C(=O)O/N=C(\N)c1ccc([N+](=O)[O-])o1,,"inconclusive: 23.1 µM [falling, single point]"
O=C(NCCOc1ccc(Cl)cc1)c1ccc2ccccc2n1,,"inconclusive: 29.1 µM [falling, single point]"
COc1ccc(N=C2SC(CC(=O)Nc3cccc(Cl)c3)C(=O)N2Cc2ccco2)cc1 (stereo not given),,"inconclusive: 18.4 µM [falling, single point]"
O=S(=O)(NCC1CCN(c2ccc(S(=O)(=O)N3CCOCC3)cc2)CC1)c1ccccc1,inactive: -11.8%,
Cc1ccc(-c2nc(NC(=O)c3nn(C)cc3[N+](=O)[O-])sc2C)cc1,,"inconclusive: 18.4 µM [falling, single point]"
CC(C)(C)OC(=O)C[C@H]1C/C=C\C[C@@H](CC(=O)N[C@H](CO)Cc2ccccc2)C(=O)N2CCC[C@H]2COC1=O,inactive: -3.92%,
Cc1ccc2c(c1)N(S(=O)(=O)c1ccc(CN3C(=O)c4cccnc4C3=O)s1)CCO2,inactive: 10.5%,
CCOP(=O)(OCC)c1nc(-c2ccc(Cl)cc2Cl)oc1N1CCCCC1,,"inconclusive: 29.1 µM [falling, single point]"
Cc1ccccc1OCC(=O)Nc1ccccc1N1CCCCC1,,"inconclusive: 9.2 µM [falling, partial curve, poor fit]"
COc1ccc(-c2nc3ccccc3c(=O)n2CCOc2ccccc2C)cc1,,"inconclusive: 0.651 µM [activator, partial curve, poor fit]"
O=C(Nc1ccc(F)c(F)c1)C(c1ccccc1)N1Cc2ccccc2C1=O (stereo not given),,"inconclusive: 18.4 µM [falling, partial curve, poor fit]"

# Grouped by structure, the compounds so far containing two or more sulfur atoms (2)
SMILES,"activity change, negative = cytotoxicity",Potency
O=S(=O)(NCC1CCN(c2ccc(S(=O)(=O)N3CCOCC3)cc2)CC1)c1ccccc1,inactive: -11.8%,
Cc1ccc2c(c1)N(S(=O)(=O)c1ccc(CN3C(=O)c4cccnc4C3=O)s1)CCO2,inactive: 10.5%,

# Copied from the results shown (2 entries):
SMILES,"activity change, negative = cytotoxicity",Potency
CC(C)c1ccc2c(c1)c(SC(C)(C)C)c(CC(C)(C)C(=O)O)n2Cc1ccc(Cl)cc1,,"inconclusive: 29.1 µM [falling, single point]"
O=c1[nH]n2c(=O)c3c([nH]c2c1N=Nc1cccc(C(F)(F)F)c1)CCCC3,,"inconclusive: 18.4 µM [falling, single point]"

# Next part:

SMILES,"activity change, negative = cytotoxicity",Potency
COc1c2c(cc3c1C(CC(O)Cc1ccccc1)N(C)CC3)OCO2 (stereo not given),,"inconclusive: 29.1 µM [falling, single point]"
COc1ccc(-c2cc(C3CCN(c4cc(Cl)nc(N)n4)CC3)[nH]n2)cc1,,"inconclusive: 5.8 µM [falling, single point]"
COc1ccccc1C(=O)Nc1ccc(-c2cc(C(F)(F)F)nn2-c2ccccc2)cc1,inactive: 3.71%,
Cc1cnc(NC(=O)CSc2ncc(-c3ccccc3)n2Cc2ccco2)s1,inactive: -17.1%,
Cc1nn(C(C)C(=O)NCc2ccco2)c(=O)c2nn(-c3ccccc3)c(C)c12 (stereo not given),,"inconclusive: 4.11 µM [activator, full curve, poor fit]"
CCCCN(C)C(=O)CSc1nc(NCc2ccc(OC)cc2)c2ccccc2n1,,"inconclusive: 29.1 µM [falling, single point]"
COc1ccc(-c2sc3ccc(OC)cc3c2C#Cc2cncn2C)cc1,inactive: -2.5%,
O=C(NCc1ccco1)C(c1ccccc1)N(C(=O)Cc1cccs1)c1ccccc1 (stereo not given),inactive: -1.71%,
CCOc1ccc(-c2cc(C(=O)N3CCN(c4ccccn4)CC3)c3ccccc3n2)cc1,,"inconclusive: 18.4 µM [falling, partial curve, poor fit]"
CCCCn1c(SCC(N)=O)nc2c(sc3ccccc32)c1=O,,"inconclusive: 18.4 µM [falling, partial curve, poor fit]"
CC(C)(C)C(=O)NC(=S)NNC(=O)c1ccc(Cl)cc1Cl,,"inconclusive: 32.6 µM [falling, partial curve, poor fit]"
COc1ccc(-c2n[nH]c(C)c2-c2cnn(-c3ccccc3)c2)c(O)c1C,inactive: -11.4%,
CSc1ccc(CCNC(=O)CN2C(=O)COc3ccc(S(=O)(=O)N4CCCCCC4)cc32)cc1,,"inconclusive: 18.4 µM [falling, single point]"
FC(F)(F)c1cccc(-c2nnc(-c3ccccc3)c(N3CCOCC3)n2)c1,,"inconclusive: 20.6 µM [activator, single point]"
CCc1ccc(-c2nc(CN3CCC(C(=O)NCCN(CC)c4ccccc4)CC3)c(C)o2)cc1,,"inconclusive: 32.6 µM [falling, partial curve, poor fit]"
CC(=O)c1sc2nc(-c3ccc(C)cc3)c3c(c2c1N)CCCC3,,"inconclusive: 2.59 µM [activator, partial curve, poor fit]"
Oc1ccccc1-c1nc(NCC2CCCO2)c2ccccc2n1 (stereo not given),,"inconclusive: 23.1 µM [falling, partial curve, poor fit]"
Cc1c(Cl)cccc1NC(=O)COC(=O)c1c2c(nc3ccccc13)CCN(Cc1ccccc1)C2,,"inconclusive: 16.4 µM [falling, single point]"
Cn1c(=O)c2[nH]c(CSCc3ccccc3)nc2n(C)c1=O,inactive: -1.22%,
CCN(CC)c1ccc(C(=C2C=CC(=[N+](CC)CC)C=C2)c2ccc(N(CC)CC)cc2)cc1,,active: 7.31 µM
CCN1CCN(Cc2ccc(NC(=O)c3ccc(C)c(NC(=O)c4ccc5n[nH]nc5c4)c3)cc2C(F)(F)F)CC1,inactive: 17.9%,
O=c1c2sccc2nc(SCc2cc(=O)n3cc(Br)ccc3n2)n1Cc1ccccn1,inactive: -8.99%,

SMILES,"activity change, negative = cytotoxicity",Potency
O=C(CCC1COc2ccccc2O1)Nc1ccc(Cl)cn1 (stereo not given),,"inconclusive: 29.1 µM [falling, single point]"
CC1CN(C(=O)N2CCC(C(=O)NCc3ccccc3F)CC2)c2cc(Cl)ccc2O1 (stereo not given),inactive: -2.48%,
COc1ccc(C(=O)Oc2c(CN3CCOCC3)cc(Cl)c3cccnc23)cc1,inactive: -16.5%,
Cc1c(N=C/C=C2\N(C)c3ccccc3C2(C)C)c(=O)n(-c2ccccc2)n1C,,"inconclusive: 29.1 µM [falling, single point]"
CCn1c(SCC(=O)Nc2nnc(C)s2)nnc1-c1ccco1,inactive: -6.57%,
Cc1ccc(S(=O)(=O)/N=C(/NC(=S)Nc2ccccc2)c2ccccc2)cc1,inactive: 2.73%,
COc1ccc(NC(=O)c2c(-c3ccc(C)cc3)nnc3ccccc23)cc1Cl,inactive: -6.01%,
Cc1ccc2nc(-c3ccc(NS(=O)(=O)c4c(C)n(C)c(=O)n(C)c4=O)cc3)sc2c1,,"inconclusive: 0.326 µM [activator, partial curve, poor fit]"
COc1ccc(CN(Cc2ccccc2)C(=O)c2ccc(O)cc2)cc1COc1ccc(NC(C)=O)cc1,inactive: 0.528%,
C=C(C)COc1ccc(-c2[nH]ncc2-c2ccc(OC)cc2)c(O)c1,inactive: 2.82%,
O=c1c2ccccc2ncn1CCCSc1ccccc1,,"inconclusive: 20.6 µM [falling, partial curve, poor fit]"
O=C(NCCCN1CCOCC1)C(=O)N/N=C/c1c2ccccc2cc2ccccc12,,"inconclusive: 18.4 µM [falling, single point]"
O=C(NCC(c1ccco1)N1CCCCC1)c1ccc(COc2ccc(Cl)cc2)cc1 (stereo not given),,"inconclusive: 32.6 µM [falling, single point]"
CCC(c1nnnn1C1CCCCC1)N(Cc1ccco1)Cc1cc2ccc(OC)cc2[nH]c1=O (stereo not given),,"inconclusive: 23.1 µM [falling, single point]"
NC(=O)c1nsc(C(=O)N(Cc2cccnc2)C(C(=O)NCc2ccc(F)cc2)c2ccc(F)cc2)c1N (stereo not given),,"inconclusive: 16.4 µM [falling, single point]"
CN(C)c1ccc(/C=C(/NC(=O)c2ccccc2)C(=O)N/N=C/c2ccc([N+](=O)[O-])c(O)c2)cc1,,"inconclusive: 29.1 µM [falling, single point]"
CCOC(=O)C(O)C1CCc2c([nH]c3ccc(C)cc23)C1=O (stereo not given),,"inconclusive: 29.1 µM [falling, single point]"
CC(C)CC[n+]1ccccc1/C=C/c1ccc(N(C)C)cc1,,"inconclusive: 14.6 µM [falling, partial curve]"
CCOc1ccc(NCc2cccn2-c2nnc(N3CCC(C(=O)NCCCN4CCCCC4C)CC3)s2)cc1 (stereo not given),inactive: 0.234%,
Cc1cc(C)c2[nH]c(=O)c(CN(Cc3ccccc3)C(=S)NCCCN(C)C)cc2c1,,"inconclusive: 23.1 µM [falling, single point]"
CN1CCN(C2=Cc3cc(Cl)ccc3Sc3cc(F)ccc32)CC1,,"inconclusive: 29.1 µM [falling, partial curve, poor fit]"
